Assay [1] has as its system Ba/F3 FLT3-ITD pMIT SYK-TEL.
Assay [2] deals with Ba/F3 FLT3-ITD Parental.

Several values for one entry are separate records, joined by “and”; a condition that tells them apart may be missing. Equal values may be shown once.

As usually defined, the IC50 is the concentration needed to halve the response being measured. Turning to `CO[C@@H]1[C@H](N(C)C(=O)c2ccccc2)C[C@H]2O[C@]1(C)n1c3ccccc3c3c4c(c5c6ccccc6n2c5c31)C(=O)NC4` [Midostaurin], the IC50 in assay [1] is 404 nM and 230 nM and 281 nM; in assay [2], 76.2 nM.

These data come from paper PMC6988309, “Preclinical efficacy for a novel tyrosine kinase inhibitor, ArQule 531 against acute myeloid leukemia” (Journal of Hematology & Oncology, 2020).
